Results are given in words; binding and its absence hold for the method and conditions named. Binding seen in cells or lysates may run through a third protein. Here binding means that the protein was enriched with, or labelled near, the bait; the list need not be complete. No binding means not detected with the bait.
Legend:
[1] = biological target: GFP-eIF4AI (eukaryotic translation initiation factor eIF4AI, GFP fused to the N-terminus) (human) (UniProt P60842); assay: affinity purification with mass spectrometry; SILAC-labelled 293T cells transfected with GFP or GFP-eIF4AI/II; lysate (10 mM TrisCl pH 7.5, 150 mM NaCl, 0.5 mM EDTA, 0.5% NP40, RNase cocktail) on anti-GFP agarose, 4 °C, 2 hr; eluates mixed 1:1:1, LC-MS/MS; hits above 1.96 SD of the sample/mock ratios
[2] = biological target: GFP-eIF4AII (eukaryotic translation initiation factor eIF4AII, GFP fused to the N-terminus) (human) (UniProt Q14240); assay: as above

Protein sequences, listed by entry. Tags and fused reporters are not part of them.
UniProt P60842: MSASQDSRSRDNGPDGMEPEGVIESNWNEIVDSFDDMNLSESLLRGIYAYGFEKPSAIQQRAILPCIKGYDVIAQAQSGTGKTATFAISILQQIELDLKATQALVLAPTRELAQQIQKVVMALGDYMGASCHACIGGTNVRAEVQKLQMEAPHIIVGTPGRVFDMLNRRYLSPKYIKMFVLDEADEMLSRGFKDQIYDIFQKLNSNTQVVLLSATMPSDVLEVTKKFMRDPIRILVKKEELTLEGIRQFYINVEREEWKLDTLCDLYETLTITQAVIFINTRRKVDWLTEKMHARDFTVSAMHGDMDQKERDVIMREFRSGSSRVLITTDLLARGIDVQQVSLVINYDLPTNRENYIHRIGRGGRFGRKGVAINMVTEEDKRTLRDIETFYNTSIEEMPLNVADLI
UniProt Q14240: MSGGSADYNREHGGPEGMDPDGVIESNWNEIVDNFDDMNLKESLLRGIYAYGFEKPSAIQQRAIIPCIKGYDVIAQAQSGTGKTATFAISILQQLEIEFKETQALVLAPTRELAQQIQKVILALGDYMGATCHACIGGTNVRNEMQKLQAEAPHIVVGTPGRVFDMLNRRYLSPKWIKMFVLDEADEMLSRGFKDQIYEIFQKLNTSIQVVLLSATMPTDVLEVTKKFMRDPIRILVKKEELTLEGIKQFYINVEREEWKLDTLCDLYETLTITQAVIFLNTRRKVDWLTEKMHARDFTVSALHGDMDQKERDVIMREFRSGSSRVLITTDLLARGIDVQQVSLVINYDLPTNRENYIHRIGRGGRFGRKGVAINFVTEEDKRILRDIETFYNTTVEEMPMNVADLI

B1: Keratin-1 cytoskeletal 9 (protein, UniProt P35527 1-623)
chain: MSCRQFSSSYLSRSGGGGGGGLGSGGSIRSSYSRFSSSGGGGGGGRFSSSSGYGGGSSRVCGRGGGGSFGYSYGGGSGGGFSASSLGGGFGGGSRGFGGASGGGYSSSGGFGGGFGGGSGGGFGGGYGSGFGGFGGFGGGAGGGDGGILTANEKSTMQELNSRLASYLDKVQALEEANNDLENKIQDWYDKKGPAAIQKNYSPYYNTIDDLKDQIVDLTVGNNKTLLDIDNTRMTLDDFRIKFEMEQNLRQGVDADINGLRQVLDNLTMEKSDLEMQYETLQEELMALKKNHKEEMSQLTGQNSGDVNVEINVAPGKDLTKTLNDMRQEYEQLIAKNRKDIENQYETQITQIEHEVSSSGQEVQSSAKEVTQLRHGVQELEIELQSQLSKKAALEKSLEDTKNRYCGQLQMIQEQISNLEAQITDVRQEIECQNQEYSLLLSIKMRLEKEIETYHNLLEGGQEDFESSGAGKIGLGGRGGSGGSYGRGSRGGSGGSYGGGGSGGGYGGGSGSRGGSGGSYGGGSGSGGGSGGGYGGGSGGGHSGGSGGGHSGGSGGNYGGGSGSGGGSGGGYGGGSGSRGGSGGSHGGGSGFGGESGGSYGGGEEASGSGGGYGGGSGKSSHS
- binding [1]: no binding
- binding [2]: no binding
